The source of these data is paper doi:10.1101/2025.07.22.666160.

By UniProt entry, the sequences of proteins in these tests, tags left out.
UniProt P62136, whole entry: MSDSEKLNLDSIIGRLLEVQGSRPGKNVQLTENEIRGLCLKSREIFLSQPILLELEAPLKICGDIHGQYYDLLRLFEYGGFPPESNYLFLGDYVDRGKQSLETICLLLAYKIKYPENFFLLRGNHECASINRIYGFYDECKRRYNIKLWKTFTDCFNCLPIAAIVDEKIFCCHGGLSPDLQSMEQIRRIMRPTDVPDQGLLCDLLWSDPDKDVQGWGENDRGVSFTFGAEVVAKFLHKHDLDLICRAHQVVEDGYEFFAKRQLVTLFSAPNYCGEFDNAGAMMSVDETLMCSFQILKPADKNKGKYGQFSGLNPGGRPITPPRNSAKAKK

Like-named read-outs stand apart in the source and are kept apart here. No constants are given. Whether binding was seen depends on the method and setting. In cells and extracts the contact can be indirect. Some entries that bind do so weakly or less than the wild type. For some of these results: Where a sequence is shown, tags or fusion partners need not be part of it.

Common to all, as to assay: co-IP
Test [1] deals with HSV-1 pUL21-GFP (wild type) (HSV-1) (UniProt F8RG07).
The target in test [2] is T1, VZV pORF38-GFP (wild type) (VZV) (UniProt P09289).
T1 sequence: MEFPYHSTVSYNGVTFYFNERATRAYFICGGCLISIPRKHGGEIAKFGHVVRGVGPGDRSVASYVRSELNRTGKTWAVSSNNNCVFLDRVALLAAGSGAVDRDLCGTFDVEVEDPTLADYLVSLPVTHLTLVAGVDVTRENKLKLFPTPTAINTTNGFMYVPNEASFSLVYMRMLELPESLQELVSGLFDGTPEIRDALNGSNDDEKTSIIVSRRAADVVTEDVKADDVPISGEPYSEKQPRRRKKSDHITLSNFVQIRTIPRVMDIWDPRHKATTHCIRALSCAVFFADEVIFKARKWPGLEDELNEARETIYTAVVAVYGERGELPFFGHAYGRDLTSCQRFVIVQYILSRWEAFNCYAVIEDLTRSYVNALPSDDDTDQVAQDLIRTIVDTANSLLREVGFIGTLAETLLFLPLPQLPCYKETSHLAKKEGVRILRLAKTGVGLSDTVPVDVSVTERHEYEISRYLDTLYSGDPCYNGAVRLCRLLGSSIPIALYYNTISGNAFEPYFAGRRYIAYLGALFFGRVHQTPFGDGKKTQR

The target of test [3] is HSV-1 pUL21-GFP (wild type) (HSV-1) (UniProt F8RG07). This is another data set of the same source.

Take “Myc-tagged human PP1α (wild type) (from UniProt P62136 1-330) (enzyme)”: the binding result in test [1] was “binds”.

For the molecule “endogenous PP1α (from UniProt P62136 1-330) (enzyme)”, the binding result in test [1] and in test [2] was “binds” throughout.

B1: endogenous CERT (ceramide transport protein) (protein, UniProt Q9Y5P4 1-624)
chain: MSDNQSWNSSGSEEDPETESGPPVERCGVLSKWTNYIHGWQDRWVVLKNNALSYYKSEDETEYGCRGSICLSKAVITPHDFDECRFDISVNDSVWYLRAQDPDHRQQWIDAIEQHKTESGYGSESSLRRHGSMVSLVSGASGYSATSTSSFKKGHSLREKLAEMETFRDILCRQVDTLQKYFDACADAVSKDELQRDKVVEDDEDDFPTTRSDGDFLHSTNGNKEKLFPHVTPKGINGIDFKGEAITFKATTAGILATLSHCIELMVKREDSWQKRLDKETEKKRRTEEAYKNAMTELKKKSHFGGPDYEEGPNSLINEEEFFDAVEAALDRQDKIEEQSQSEKVRLHWPTSLPSGDAFSSVGTHRFVQKPYSRSSSMSSIDLVSASDDVHRFSSQVEEMVQNHMTYSLQDVGGDANWQLVVEEGEMKVYRREVEENGIVLDPLKATHAVKGVTGHEVCNYFWNVDVRNDWETTIENFHVVETLADNAIIIYQTHKRVWPASQRDVLYLSVIRKIPALTENDPETWIVCNFSVDHDSAPLNNRCVRAKINVAMICQTLVSPPEGNQEISRDNILCKITYVANVNPGGWAPASVLRAVAKREYPKFLKRFTSYVQEKTAGKPILF
As for B1, in test [3], the binding result is “binds”.
